Laboratory results taken from US20120065179A1, “PRODRUG COMPRISING BETA-KETO CARBOXYLIC ACID, BETA-KETO CARBOXYLIC ACID SALT OR BETA-KETO CARBOXYLIC ACID ESTER FOR DRUG DELIVERY” (YKI, Ytemiska Institutet AB, priority 2009, published 2012).
For part of these data: The name of at least one read-out is uncertain. For part of these data: At least one compound was matched to its structure with a doubt left.

What was measured:
[1] = Aqueous solubility of sodium beta-keto salt prodrug of Nabumetone (Example 13b); assay type: physicochemical
Method: 12.1 mg of the of ethyl-5-(6-methoxy-2-naphthyl)-beta-keto-pentanoate product prepared and purified as in Example 8 was mixed with 25 mL of a 0.5 M aqueous solution NaOH and homogenised on a vortex mixer. […] 15 minutes after preparation of the sample, the sample was transferred to an oil bath set at 37° C. with continuous gentle magnetic stirring, and kept there for 3.5 hours. Crystalline flakes remained in the sample at the end of the 3.5 hours heat-treatment, and the sample was thereafter centrifuged and the clear liquid above the sedimented crystals was analysed by HPLC as described above.
After storage around one hour at room temperature a fraction of the sample was then filtered twice through a 0.2 μm filter (Whatman, 0.2 μm PS) fitted to a syringe to give a clear solution. 200 μL of this filtered solution was transferred, in a tightly closed vessel, to an oil bath at 95° C. and kept at this temperature for about 5 hours to bring about quantitative decarboxylation of the labile, dissolved beta-keto carboxylic salt prodrug derivative of Nabumetone.
The heated sample was then mixed with 35 mL of mobile phase (see Example 1) whereby a few solid crystals (comprising Nabumetone) was seen to not dissolve. […] The filtered solution was thereafter analysed by HPLC and found to contain 0.777 mg Nabumetone per liter. […]

[2] = Aqueous solubility of benzoylacetate salts (Example 13a)

5-(6-methoxy-2-naphthyl)-beta-keto-pentanoate [Nabumetone beta-keto salt prodrug]
Increase in solubility compared to acetophenone (number of times higher total concentration of Nabumetone obtainable in the system using the prodrug) ([1]; listed as Sodium beta-keto salt prodrug of Nabumetone): 29 X times
Increase in solubility compared to acetophenone (number of times higher total concentration of Nabumetone obtainable in the system using the prodrug) ([1]; listed as sodium beta-keto carboxylic salt): at least 29 times

O=C([O-])CC(=O)c1ccccc1.O=C([O-])CC(=O)c1ccccc1.[Ca+2] [calcium benzoylacetate, Ca(benzoylacetate)2]
Increase in solubility compared to acetophenone [2]: 3 x
